Test results published in PubChem BioAssay AID1259415 (National Center for Advancing Translational Sciences (NCATS), 2018).
Several values for one entry are separate records, joined by “and”; a condition that tells them apart may be missing. Equal entries are not always repeated. About 18,000 (4.4%) of roughly 410,000 compounds were called active. This list was built around the results that the source calls inconclusive (neither active nor inactive); the mix of calls is not that of the screen. No stated cut-off is given here; in the data, active means activity change below about -60%; inconclusive means no clear call, values can overlap the other calls; inactive means above about -39%.

experiment: qHTS Assay for inhibitors of the human cytomegalovirus (HCMV); details: HFF cells, HCMV-luciferase reporter, 72 h; at 57.5 µM; stronger effect = lower value
In short: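 Human foreskin fibroblasts infected with luciferase-reporter HCMV at MOI 1 PFU/cell, compounds at two doses. Luciferase measured 72 h post infection; normalized to buffer-only basal and Salinomycin (10uM) controls.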
On the % scale 0 is the no-effect control and ±100 the full control effect.

Structure (SMILES) | activity change, negative = inhibition
COc1cccc(C(=O)O/N=C(\N)c2ccc([N+](=O)[O-])cc2)c1OC | inactive: 10.9%
CN(c1ccccc1)S(=O)(=O)c1ccc(C(=O)Nc2ccncc2)cc1 | inconclusive: -43.6%
COC(=O)c1c(C)nc2ccccc2c1C(=O)O | inactive: -8.2%
CC(/C=N/N1CCN(c2ccc(C)cc2)CC1)=C\c1ccccc1 | inconclusive: -43.1%
CC(C)(C)c1ccc(CSc2ccc(S(=O)(=O)N3CCOCC3)cn2)cc1 | inconclusive: -41.4%
O=C(Nc1ccccc1C(=O)Nc1nnc(C(F)(F)F)s1)c1ccccc1 | active: -99.2%
CCOC(=O)c1c(NC(=O)CSC2=NN3CCCC(=O)N=C3S2)sc2c1CCCCC2 | inactive: 63.2%
COc1ccc(CCC(=O)Nc2c(C)n(C)n(-c3ccccc3)c2=O)cc1 | inactive: -16%
N#CCCn1cc(C(=O)Nc2ccc([N+](=O)[O-])cc2)c(-c2ccc3c(c2)OCCO3)n1 | active: -66.9%
CC1CN(c2ccc([N+](=O)[O-])cc2F)CCN1C(=O)c1ccco1 (stereo not given) | inconclusive: -40.8%
NCCCC[C@H](N[C@@H](CCc1ccccc1)C(=O)O)C(=O)N1CCC[C@H]1C(=O)O | inconclusive: -42.9% and inconclusive: -51.7%
Cc1ccc(NC(=O)C2CC(=O)Nc3nc4ccccc4n32)c(C)c1 (stereo not given) | inconclusive: -49.4%
O=C1C(Cl)=C(N2CCCCCC2)C(=O)N1c1ccc(Cl)cc1 | inconclusive: -40.4%
O=C(CSc1ccc2nnc(CCNC(=O)c3ccccc3)n2n1)Nc1ccccc1 | inactive: 0%
O=C(Nc1ccc(F)cc1)N(Cc1cccs1)Cc1cc2cc3c(cc2[nH]c1=O)OCO3 | active: -60.9%
O=S(=O)(NCc1ccccn1)c1ccccn1 | inactive: 24.1%
Cc1cccc2nc(-c3cccnc3)c(Nc3ccc(C(C)C)cc3)n12 | active: -83%
Cc1ccccc1N1CC(C(=O)Nc2ccncc2)CC1=O (stereo not given) | inactive: -39.6%
Cc1ccc(NC(=O)OCCN2CCN(Cc3ccccc3)CCC2=O)cc1 | inconclusive: -55.1%
CC(C)CC1C(=O)N(Cc2cn(CCC3OCCCO3)nn2)CCS(=O)(=O)N1Cc1ccc(-c2ccc(Cl)nc2)cc1 (stereo not given) | inactive: -14.4%
Cc1ccccc1OCCSCc1nc2ccccc2[nH]1 | inconclusive: -52.6%
Fc1ccc(N2CCN(C(=S)NCC3CCCO3)CC2)cc1 (stereo not given) | inconclusive: -46.5%
Cc1cc(C)cc(NC(=O)CSc2nccn2-c2ccccc2)c1 | inactive: -5.82%
COc1ccc(N/C=C\C(=O)c2ccc3c(c2)OCO3)cc1OC | inconclusive: -41.5%
CNS(=O)(=O)/C=C/c1ccccc1 | active: -72%
Cc1nnc(N2CCCC(C(=O)NCc3cccc(F)c3)C2)c2nn(-c3ccccc3)c(C)c12 (stereo not given) | inconclusive: -44.6%
C=CCn1c(SCC(=O)NC2CCCC2)nc2c([nH]c3ccccc32)c1=O | active: -90.1%
COc1ccc(NC(=O)c2cnn(-c3ccc(C)cc3)c2-n2cccc2)cc1Cl | inconclusive: -46.1%

Structure (SMILES) | activity change, negative = inhibition
CSc1ncccc1C(=O)N1CCN(S(=O)(=O)c2ccccc2)CC1 | inconclusive: -54%
O=C(NCc1ccccc1)/C(=N\O)c1ccccc1 | inactive: 7.47%
N#Cc1cc2c(=O)n3ccccc3nc2n(-c2ccc(Cl)cc2)c1=O | active: -60%
COc1ccc2c(CNCc3ccc(Cl)cc3)c(C(=O)O)n(Cc3ccccc3C)c2c1 | inconclusive: -43.7%
CCc1cccc2c(-c3ccccc3)nc(SCC(=O)Nc3ccccc3)nc12 | inconclusive: -40.5%
CC(C)CN(CC(C)C)C(=O)c1cc(S(=O)(=O)N2CCCCC2)c[nH]1 | inconclusive: -47.9%
O=C(CSc1ccccn1)Nc1ccc(Cl)c([N+](=O)[O-])c1 | inactive: -39.6%
COc1ccc(-c2cc(C)no2)cc1S(=O)(=O)NCc1ccc(OC(C)C)cc1 | inactive: 11.1% and inactive: -19.5%
Cc1ccc2c(c1)nnn2C1CCN(S(=O)(=O)c2ccc(C(=O)N(C)C3CCCCC3)cc2)CC1 | inconclusive: -51.9%
CCOC(=O)c1c(N2C(=O)CC(Sc3ccccc3C(=O)O)C2=O)sc(C)c1C (stereo not given) | inconclusive: -50.1%
O=C1NC(=O)C2C1C(c1ccc([N+](=O)[O-])cc1)=NN2Cc1ccccc1 (stereo not given) | active: -71.6%
CN1CCN(CCCNC(=O)Cn2c(-c3cccs3)cc3ccccc32)CC1 | inconclusive: -54.8%
Cc1ccc(S(=O)(=O)CCSc2nccn2C)cc1 | inactive: 36.6%
CN(C(=O)c1ccccc1OCc1ccc(Cl)cc1)c1ccccc1 | inactive: -27.4%
COC(=O)C1C(=O)C(C(=O)/C=C/c2ccccc2)C(=O)CC1(C)C (stereo not given) | active: -82.2%
Cc1nn(-c2cccc(C(F)(F)F)c2)c(=O)c2noc(C)c12 | inactive: -17.4%
COc1ccc(/C=N/NC(=O)c2c(C)nnn2-c2nonc2N)cc1OC | inconclusive: -51%
O=C(OC1CCOC1=O)C1CCN(S(=O)(=O)c2c(Cl)cccc2Cl)CC1 (stereo not given) | inactive: -19.7%
CCC(=O)N(Cc1ccco1)Cc1cc2cccc(C)c2n2nnnc12 | inconclusive: -49.1%
Cc1ccc(Cl)cc1N1CCN(C(=O)C2CCN(S(C)(=O)=O)CC2)CC1 | active: -63.7%
CN(C)CCCC(=O)c1ccc2c(c1)OCO2 | inconclusive: -50.8%
O=C(Cn1c(=O)[nH]c2ccccc2c1=O)N1CCN(Cc2ccc3c(c2)OCO3)CC1 | inconclusive: -49.4%
CC(C)Oc1ccc(CNC(=O)c2ccc3nc(N4CCOCC4)sc3c2)cc1 | inconclusive: -40.2%
COc1cc(C(=O)N/N=C(\C)Cc2ccccc2)cc(OC)c1OC | active: -91.5%
COc1cccc(NS(=O)(=O)c2ccc3c(c2)N(C(C)=O)CCS3)c1 | inconclusive: -43.5%
COc1ccc(C(=O)N2CCN(CCNC(=O)C(=O)Nc3ccc(F)cc3)CC2)cc1 | inconclusive: -45.3%
CC(=O)N(c1cc(C)ccc1C)c1ccccc1[N+](=O)[O-] | active: -63.2%

5 structures from above, sorted by SMILES length, descending.
Structure (SMILES) | activity change, negative = inhibition
CCOC(=O)c1c(N2C(=O)CC(Sc3ccccc3C(=O)O)C2=O)sc(C)c1C (stereo not given) | inconclusive: -50.1%
COc1ccc(-c2cc(C)no2)cc1S(=O)(=O)NCc1ccc(OC(C)C)cc1 | inactive: 11.1% and inactive: -19.5%
Cc1ccc(Cl)cc1N1CCN(C(=O)C2CCN(S(C)(=O)=O)CC2)CC1 | active: -63.7%
O=C(CSc1ccccn1)Nc1ccc(Cl)c([N+](=O)[O-])c1 | inactive: -39.6%
Cc1ccc(S(=O)(=O)CCSc2nccn2C)cc1 | inactive: 36.6%
